Reference: PubChem BioAssay AID1259331 (Drosophila RNAi Screening Center, 2017)
Purpose: 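Knock-downs that alter ATP level after a high zinc chloride dose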 (primary screen). Cell system: Drosophila S2R+ cells. Reagents: long dsRNA against Drosophila genes. Timing: 5 days (4 days knock-down, then 1 day zinc). Treatment: zinc chloride at 15 mM final level for 1 day. Measured: 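Luminescent ATP assay standing in for viability; Z score is the mean over three replicate plates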. Reading the numbers: mean Z score: higher = more ATP than other wells, better survival under zinc; ATP luminescence: higher = more ATP, more viable cells. Active means: 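Hit when the absolute Z score is greater than 1.5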. Meaning of the calls: active = hit, ATP up or down; inactive = not a hit.
The deposit covers about 3,100 reagents; shown is an unselected part. 126 of all reagents (4.1%) count as active. 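Calls are per reagent; zinc was so toxic that few knock-downs lowered ATP further, so most hits raise ATP.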 Raw values vary from plate to plate and are shown uncorrected. A plus sign joins genes that one reagent is predicted to hit. Not stated in the record: the amount of reagent.

CG32512 (GeneID 33085) [DRSC20519] → mean Z score: -0.0565; ATP luminescence, replicate 1: 67903; ATP luminescence, replicate 2: 62261; Outcome: inactive
CG32512 (GeneID 33085) [DRSC21401] → mean Z score: 0.0856; ATP luminescence, replicate 1: 47823; ATP luminescence, replicate 2: 51235; Outcome: inactive
PIG-B (GeneID 38446) [DRSC22598] → mean Z score: -0.663; ATP luminescence, replicate 1: 39010; ATP luminescence, replicate 2: 42679; Outcome: inactive
PIG-B (GeneID 38446) [DRSC39659] → mean Z score: -0.0841; ATP luminescence, replicate 1: 58750; ATP luminescence, replicate 2: 57151; Outcome: inactive
Shal (GeneID 40129) [DRSC09625] → mean Z score: -0.604; ATP luminescence, replicate 1: 58368; ATP luminescence, replicate 2: 53658; Outcome: inactive
Shal (GeneID 40129) [DRSC11283] → mean Z score: 0.126; ATP luminescence, replicate 1: 78378; ATP luminescence, replicate 2: 63616; Outcome: inactive
CG13877 + pyx [DRSC08347] → mean Z score: -0.445; ATP luminescence, replicate 1: 63599; ATP luminescence, replicate 2: 61187; Outcome: inactive
CG6845 (GeneID 38019) [DRSC08576] → mean Z score: -0.214; ATP luminescence, replicate 1: 30521; ATP luminescence, replicate 2: 32359; Outcome: inactive
CG6845 (GeneID 38019) [DRSC26319] → mean Z score: 0.0949; ATP luminescence, replicate 1: 53567; ATP luminescence, replicate 2: 60015; Outcome: inactive
stet (GeneID 38169) [DRSC08246] → mean Z score: -0.00401; ATP luminescence, replicate 1: 67879; ATP luminescence, replicate 2: 70973; Outcome: inactive
stet (GeneID 38169) [DRSC08283] → mean Z score: 1.43; ATP luminescence, replicate 1: 57219; ATP luminescence, replicate 2: 61335; Outcome: inactive
Pkd2 (GeneID 34651) [DRSC02962] → mean Z score: -0.13; ATP luminescence, replicate 1: 52744; ATP luminescence, replicate 2: 35685; Outcome: inactive
Pkd2 (GeneID 34651) [DRSC27522] → mean Z score: -0.168; ATP luminescence, replicate 1: 57780; ATP luminescence, replicate 2: 57785; Outcome: inactive
CG42638 + Trpml [DRSC11032] → mean Z score: 0.0816; ATP luminescence, replicate 1: 29753; ATP luminescence, replicate 2: 33524; Outcome: inactive
CG42638 + Trpml [DRSC39630] → mean Z score: -0.508; ATP luminescence, replicate 1: 54339; ATP luminescence, replicate 2: 53589; Outcome: inactive
ABCB7 (GeneID 38193) [DRSC08603] → mean Z score: 0.701; ATP luminescence, replicate 1: 81722; ATP luminescence, replicate 2: 76445; Outcome: inactive
CG14767 (GeneID 50250) [DRSC06500] → mean Z score: -0.262; ATP luminescence, replicate 1: 27970; ATP luminescence, replicate 2: 27525; Outcome: inactive
CG14767 (GeneID 50250) [DRSC28418] → mean Z score: 0.284; ATP luminescence, replicate 1: 66977; ATP luminescence, replicate 2: 64553; Outcome: inactive
Ir68a (GeneID 39269) [DRSC10599] → mean Z score: -0.542; ATP luminescence, replicate 1: 71333; ATP luminescence, replicate 2: 59929; Outcome: inactive
Eaat2 (GeneID 33247) [DRSC00032] → mean Z score: -0.0366; ATP luminescence, replicate 1: 39319; ATP luminescence, replicate 2: 44874; Outcome: inactive
Eaat2 (GeneID 33247) [DRSC00749] → mean Z score: 0.00775; ATP luminescence, replicate 1: 54990; ATP luminescence, replicate 2: 57751; Outcome: inactive
Eaat2 (GeneID 33247) [DRSC26070] → mean Z score: -0.65; ATP luminescence, replicate 1: 41258; ATP luminescence, replicate 2: 41822; Outcome: inactive
pHCl-1 (GeneID 39730) [DRSC09401] → mean Z score: -0.07; ATP luminescence, replicate 1: 64199; ATP luminescence, replicate 2: 65593; Outcome: inactive
pHCl-1 (GeneID 39730) [DRSC09991] → mean Z score: -0.109; ATP luminescence, replicate 1: 42422; ATP luminescence, replicate 2: 43197; Outcome: inactive
pHCl-1 (GeneID 39730) [DRSC10589] → mean Z score: -0.585; ATP luminescence, replicate 1: 62947; ATP luminescence, replicate 2: 59414; Outcome: inactive
stas (GeneID 32737) [DRSC20104] → mean Z score: -0.0711; ATP luminescence, replicate 1: 44068; ATP luminescence, replicate 2: 50326; Outcome: inactive
Nup154 (GeneID 34527) [DRSC26396] → mean Z score: 2.01; ATP luminescence, replicate 1: 94954; ATP luminescence, replicate 2: 77731; Outcome: active
Trpgamma (GeneID 34991) [DRSC03626] → mean Z score: -0.201; ATP luminescence, replicate 1: 45577; ATP luminescence, replicate 2: 40879; Outcome: inactive
Trpgamma (GeneID 34991) [DRSC39800] → mean Z score: 0.298; ATP luminescence, replicate 1: 57700; ATP luminescence, replicate 2: 63324; Outcome: inactive
Or98a (GeneID 43341) [DRSC16774] → mean Z score: 0.268; ATP luminescence, replicate 1: 70064; ATP luminescence, replicate 2: 70922; Outcome: inactive
Or98a (GeneID 43341) [DRSC26173] → mean Z score: 0.188; ATP luminescence, replicate 1: 56343; ATP luminescence, replicate 2: 58111; Outcome: inactive

Reformatted: results already given
CG14767 (GeneID 50250) [DRSC06500]
- mean Z score: -0.262
- ATP luminescence, replicate 1: 27970
- ATP luminescence, replicate 2: 27525
- Outcome: inactive

CG14767 (GeneID 50250) [DRSC28418]
- mean Z score: 0.284
- ATP luminescence, replicate 1: 66977
- ATP luminescence, replicate 2: 64553
- Outcome: inactive
